No constants are given. Whether binding was seen depends on the method and setting. In cells and extracts the contact can be indirect. A yes stands for co-enrichment or nearness to the bait. Other partners may have been found.
Tests used:
[1] = biological target: T1, SmD3 protein trap (CPTI-002164) (Drosophila melanogaster (endogenous in embryos)) (UniProt O44437); assay: affinity purification with mass spectrometry; parallel one-step affinity purifications of the trapped protein from Drosophila embryonic extracts by the StrepTagII and either the 3×FLAG tag or YFP; co-purifying proteins identified by mass spectrometry; each pull-down performed at least twice
T1 sequence: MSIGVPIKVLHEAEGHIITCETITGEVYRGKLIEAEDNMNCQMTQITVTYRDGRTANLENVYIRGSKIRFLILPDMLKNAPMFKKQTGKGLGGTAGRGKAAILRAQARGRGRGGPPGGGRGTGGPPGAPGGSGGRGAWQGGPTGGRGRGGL

[2] = biological target: T2, PKA-R2 protein trap (CPTI-001580) (Drosophila melanogaster (endogenous in embryos)) (UniProt P81900); assay: as above
T2 sequence: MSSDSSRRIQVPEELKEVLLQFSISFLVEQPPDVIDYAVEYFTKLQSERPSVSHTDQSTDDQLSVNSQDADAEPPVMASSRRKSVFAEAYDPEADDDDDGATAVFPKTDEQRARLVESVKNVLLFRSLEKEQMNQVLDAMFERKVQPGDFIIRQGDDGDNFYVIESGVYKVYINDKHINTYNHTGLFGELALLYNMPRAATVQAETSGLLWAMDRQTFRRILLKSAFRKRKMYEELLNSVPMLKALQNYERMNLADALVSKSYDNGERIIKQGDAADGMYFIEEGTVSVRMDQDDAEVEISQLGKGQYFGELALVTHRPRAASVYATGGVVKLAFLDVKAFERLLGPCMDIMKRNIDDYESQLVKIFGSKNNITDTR

binding [1]	binding [2]	Substance
binds		CG32152
	binds	PKA-C1 (from UniProt P12370 1-353)
